Data on one substance can be found in US11413354B2, “N-acetylgalactosamino dendron-clearing agent for dota-pretargeted radioimmunotherapy” (priority 2018, dated 2022).

The test system of series [1] is GPA33-expressing SW1222 xenografts. Put plainly: Absorbed dose estimates for PRIT+[^177Lu]LuDOTA-Bn including dendron-CA CCA-16-DOTA-Y^3+. The format is in vivo, nude mice. The procedure: Absorbed dose estimates for PRIT+[^177Lu]LuDOTA-Bn including dendron-CA CCA-16-DOTA-Y^3+: In order to calculate absorbed doses for PRIT+[[…]]LuDOTA-Bn including dendron-CA (the clearing agent of the present technology), groups of nude mice bearing GPA33-expressing SW1222 xenografts (n=5/group) were injected i.v. with the BsAb huA33-C825 (250 μg; 1.19 nmol) 28 h prior and i.v. with dendron-clearing agent CCA-16-DOTA-Y^3+ (25 μg; 2.76 nmol) 4 h prior to administration of [^177Lu]LuDOTA-Bn (20 pmol, 3.7 MBq [100 μCi]). These mice were sacrificed at 1, 4, 24, or 48 h p.i. of [^177Lu]LuDOTA-Bn for biodistribution assay. For each tissue, the non-decay-corrected time-activity concentration data were fitted using Excel to a 1-component, 2-component, or more complex exponential function as appropriate, and analytically integrated to yield the cumulated activity concentration per unit administered activity (MBq-h/g per MBq). The ^177Lu equilibrium dose constant for non-penetrating radiations (8.49 g-cGy/MBq-h) was used to estimate the tumor-to-tumor and select organ-to-organ self-absorbed doses, assuming complete local absorption of the ^177Lu beta rays only, and ignoring the gamma ray and non-self dose contributions.

Series [2] has as its system SW1222 xenografts (anti-GPA33 PRIT). Put plainly: Optimized PRIT+[^177Lu]LuDOTA-Bn including dextran-CA (Cheal et al. 2016): dosimetry and therapy. It counts as in vivo, mice. Particulars: with dextran-CA; at 278 MBq. The source says: See Cheal et al., Eur J Nucl Med Mol Imaging 43: 925 (2016). […] Cheal et al., Eur J Nucl Med Mol Imaging 43: 925 (2016).
Based on human normal-tissue radiation dose tolerance estimates derived from clinical observations (Marks, et al., Int J Radiat Oncol Biol Phys. 76:S10-9 (2010)) the maximum tolerated doses (MTDs) are 250 cGy for bone marrow, 1,500 cGy for lung, 3,000 cGy for liver, and 2,000 cGy for kidney. […] At this activity, the estimated absorbed dose delivered to tumor would be 18,292 cGy (183 Gy), with 250 cGy to blood (marrow) and 1,473 cGy to kidney.

Where [3] appears, read: with dendron-CA CCA-16-DOTA-Y^3+ 25 μg.
Setting [4] is: with dendron-CA, administered activity of 15.6 MBq.

“^177Lu-aminobenzylDOTA [[^177Lu]LuDOTA-Bn]”: in series [1] (setting [3]), the “estimated absorbed dose, blood” value is 11.7 cGy/MBq; the “estimated absorbed dose, kidneys” value was 13.3 cGy/MBq; the “estimated absorbed dose, liver” value is reported as 9.97 cGy/MBq; the “estimated absorbed dose, spleen” value is 5.49 cGy/MBq. Also, the “estimated absorbed dose, tumor” value in series [1] (setting [3]) was 468.4 cGy/MBq. In series [1] (setting [4]), the “absorbed dose to blood (marrow)” value is 183 cGy, the “absorbed dose to kidney” value was 207 cGy and the tumor absorbed dose was around 73 Gy. In series [1] (with dendron-CA, at 21 MBq), the “estimated absorbed dose delivered to tumor” value is reported as 9836 cGy, the “estimated absorbed dose to blood (marrow)” value is recorded as 246 cGy and the “estimated absorbed dose to kidney” value was 280 cGy. For the same substance, in series [2], the “estimated absorbed dose delivered to tumor” value was 18,292 cGy, the “estimated absorbed dose to blood (marrow)” value is 250 cGy and the “estimated absorbed dose to kidney” value is reported as 1,473 cGy.
